Assay results: patent publication US4788178A, “Use of gonadoliberin and gonadoliberin agonists for the treatment of climacteric complaints” (Hoechst Aktiengesellschaft, priority 1984, dated 1988)
Part of at least one peptide drawing is inferred or uncertain, most often the ends.

Type: in vivo, person
[1] = person, after surgical removal of the uterus, 50 μg intranasal twice a day

CC(C)C[C@H](NC(=O)CNC(=O)[C@H](Cc1ccc(O)cc1)NC(=O)[C@H](CO)NC(=O)[C@H](Cc1c[nH]c2ccccc12)NC(=O)[C@H](Cc1c[nH]cn1)NC(=O)[C@@H]1CCC(=O)N1)C(=O)N[C@@H](CCCNC(=N)N)C(=O)N1CCC[C@H]1C(=O)NCC(N)=O [gonadoliberin]
attacks of migraine [1]: briefer, rarer and considerably less intense
ostalgia [1]: reduced to a minimum
climacteric complaints (irregular menstruation, cramp-like pains, pressure on the bladder, hot flushes) (person, 100 μg intranasal twice a day): disappeared after the 1st day of treatment
regularity of menstruation during treatment (person, 100 μg intranasal twice a day, about 9 months): occurred very punctually
complaints on discontinuation of treatment (treatment discontinued twice for two weeks): complaints recurred
